The record followed here is PubChem BioAssay AID330 (DTP/NCI, 2004).

The list shows only some results of the screen, not a fair sample: it is rich in T/C values a quarter to a half above the control, in often repeated tests (any T/C) and in doses without a T/C. Other doses and runs of a compound stand elsewhere. T/C is the treated group as % of the vehicle group. Some doses have a count of surviving animals in place of a T/C: the source files T/C as zero there, which appears to mark a toxic dose or a test without result, not a measured value. Some doses without a T/C left all or most animals alive at the check, yet need not have been tolerated: the source hardly ever lists a survival T/C far under the control, and the zero likely stands for such cases as well. Survivors were counted at the toxicity check, usually on the fifth day, unless a day is given; later deaths do not show. Schedules are NCI's codes, taken here to give the interval after Q, in days (D) or hours (H), and the number of doses after X. Some entries hold several experiments; their values stand side by side, smallest first. Where survival is the endpoint, the PubChem record calls one and a half times the control and up active, and a quarter to a half above the control has no call in these data; cut-offs in other NCI protocols can differ. Some T/C values are followed by the survivors on the day toxicity was checked, most often the fifth; where none is given, no animal had died by that day.

In this assay the test system is P388 leukemia ip, CD2F1 mice, survival T/C. In words: NCI In Vivo Anticancer Drug Screen. Data for tumor model P388 Leukemia (intraperitoneal) in CD2F1 (CDF1) mice. Conditions: T/C endpoint: median survival time, higher T/C = longer survival.
The mark [1] stands for this setting: dose: 50.0 mg/kg/injection, schedule: Q01DX009 (ip), vehicle: saline with Tween-80.
Setting [2] is: dose: 200.0 mg/kg/injection, schedule: Q01DX009 (ip), vehicle: saline with Tween-80.
Where [3] appears, read: dose: 400.0 mg/kg/injection, schedule: Q01DX001 (ip), vehicle: Klucel (hydroxypropylcellulose) (HPC).
Where [4] appears, read: dose: 200.0 mg/kg/injection, schedule: Q01DX005 (ip), vehicle: saline.
Setting [5] is: dose: 50.0 mg/kg/injection, schedule: Q01DX009 (ip), vehicle: water.
The mark [6] stands for this setting: dose: 100.0 mg/kg/injection, schedule: Q01DX009 (ip), vehicle: water.
[7] abbreviates: dose: 200.0 mg/kg/injection, schedule: Q01DX005 (ip), vehicle: saline with Tween-80.
Setting [8] is: dose: 100.0 mg/kg/injection, schedule: Q01DX005 (ip), vehicle: saline with Tween-80.
Where [9] appears, read: dose: 100.0 mg/kg/injection, schedule: Q01DX009 (ip), vehicle: Klucel (hydroxypropylcellulose) (HPC).
The mark [10] stands for this setting: dose: 200.0 mg/kg/injection, schedule: Q01DX009 (ip), vehicle: Klucel (hydroxypropylcellulose) (HPC).
Where [11] appears, read: dose: 100.0 mg/kg/injection, schedule: Q01DX005 (ip), vehicle: saline.

As to `COC(=O)Nc1nc2ccc(C(=O)c3ccc(F)cc3)cc2[nH]1`, the T/C runs as follows: (dose: 25.0 mg/kg/injection, schedule: Q01DX009 (ip), vehicle: saline with Tween-80) 140 % of control; under setting [1], 147 % of control. In addition, under setting [2], the survivor count was 4 of 6 and 6 of 6.

Regarding `[Cl][Mn][Cl]`, the survivor count (dose: 1.0 mg/kg/injection, schedule: Q01DX009 (ip), vehicle: saline) is 5 of 6; the survivor count (dose: 4.0 mg/kg/injection, schedule: Q01DX009 (ip), vehicle: saline) was 5 of 6 and 6 of 6; the survivor count (dose: 8.0 mg/kg/injection, schedule: Q01DX009 (ip), vehicle: saline) was 6 of 6; the survivor count (dose: 16.0 mg/kg/injection, schedule: Q01DX009 (ip), vehicle: saline) is 6 of 6; the survivor count (dose: 32.0 mg/kg/injection, schedule: Q01DX009 (ip), vehicle: saline) is 5 of 6 and 6 of 6; the survivor count (dose: 128.0 mg/kg/injection, schedule: Q01DX009 (ip), vehicle: saline) was 1 of 6. Also, the survivor count was 0 of 6 (dose: 128.0 mg/kg/injection, schedule: Q01DX009 (ip), vehicle: suspension in saline) and 0 of 6 (dose: 256.0 mg/kg/injection, schedule: Q01DX009 (ip), vehicle: suspension in saline).

Turning to `O=[N+]([O-])c1sccc1SSc1ccsc1[N+](=O)[O-]`, the survivor count is recorded as 6 of 6 (dose: 100.0 mg/kg/injection, schedule: Q01DX001 (ip), vehicle: Klucel (hydroxypropylcellulose) (HPC)); 6 of 6 (dose: 200.0 mg/kg/injection, schedule: Q01DX001 (ip), vehicle: Klucel (hydroxypropylcellulose) (HPC)); 6 of 6 under setting [3].

With `CC(CC(C)C)=NC(C)CC(C)C` (stereo not given), under setting [4], the survivor count was 3 of 6.

`CNC1C(O)C2Oc3c(cc(O)c4c3C(=O)c3cc5c(c(O)c3C4=O)C(OC3OC(C)C(OC)C(C)(OC)C3OC)CC(C)(O)C5C(=O)OC)C(C)(O2)C1O` (stereo not given): the survivor count (dose: 50.0 mg/kg/injection, schedule: Q04DX003 (ip), vehicle: other) is 5 of 6.

Take `Cc1cccnc1Br`: the survivor count reads like this: under setting [5], 6 of 6; under setting [6], 6 of 6; (dose: 400.0 mg/kg/injection, schedule: Q01DX009 (ip), vehicle: water) 0 of 6.

Turning to `CCC1(O)CC(c2ccccc2)N(C)C(c2ccccc2)C1` (stereo not given), the survivor count under setting [7] was 0 of 6.

Consider `COc1ccc(CC(NC(=O)NSc2ccccc2)C(=O)NC2C(CO)OC(n3cnc4c(N(C)C)ncnc43)C2O)cc1` (stereo not given), for which the survivor count under setting [8] is listed as 6 of 6 and the survivor count under setting [7] was 6 of 6.

For `S=C1N(c2ccc(Cl)cc2)C2=C(N=Nc3ccccc3Cl)C(=Nc3ccccc3S2)N1c1ccccn1`, the T/C (dose: 50.0 mg/kg/injection, schedule: Q01DX005 (ip), vehicle: saline with Tween-80) was 126 % of control. For the same compound, the survivor count under setting [7] is recorded as 3 of 6.

Regarding `N#CC1OC1c1ccccn1` (stereo not given), the survivor count is, setting by setting: (dose: 25.0 mg/kg/injection, schedule: Q01DX005 (ip), vehicle: saline + Tween-80 + alcohol) 0 of 6; (dose: 50.0 mg/kg/injection, schedule: Q01DX005 (ip), vehicle: saline + Tween-80 + alcohol) 0 of 6; (dose: 100.0 mg/kg/injection, schedule: Q01DX005 (ip), vehicle: saline + Tween-80 + alcohol) 0 of 6; (dose: 200.0 mg/kg/injection, schedule: Q01DX005 (ip), vehicle: saline + Tween-80 + alcohol) 0 of 6.

Regarding `CC(C)[CH2][Sn](=[O])[c]1ccccc1`, the survivor count runs as follows: (dose: 3.12 mg/kg/injection, schedule: Q01DX009 (ip), vehicle: saline with Tween-80) 3 of 6; (dose: 6.25 mg/kg/injection, schedule: Q01DX009 (ip), vehicle: saline with Tween-80) 1 of 6; (dose: 12.5 mg/kg/injection, schedule: Q01DX009 (ip), vehicle: saline with Tween-80) 0 of 6; under setting [1], 0 of 6; (dose: 100.0 mg/kg/injection, schedule: Q01DX009 (ip), vehicle: saline with Tween-80) 0 of 6; under setting [2], 0 of 6.

For `COn1c2ccccc2c2c1cc1ccccc1[n+]2[O-]`, the survivor count (dose: 50.0 mg/kg/injection, schedule: Q01DX005 (ip), vehicle: Klucel (hydroxypropylcellulose) (HPC)) was 6 of 6.

On to `C/C(=N\NC(=S)N1CCCC1)c1nccs1`, for which the survivor count by setting is: under setting [8], 2 of 6; under setting [7], 2 of 6.

With `O=C(O)c1cccc([N+](=O)[O-])c1O`, the survivor count is 0 of 6 (dose: 50.0 mg/kg/injection, schedule: Q01DX009 (ip), vehicle: Klucel (hydroxypropylcellulose) (HPC)); 0 of 6 under setting [9]; 0 of 6 under setting [10]; 0 of 6 (dose: 400.0 mg/kg/injection, schedule: Q01DX009 (ip), vehicle: Klucel (hydroxypropylcellulose) (HPC)).

As to `Cc1cc2nc3[nH]c(=O)c4ccccc4c(=O)n3c2cc1C`, the survivor count under setting [3] is given as 6 of 6.

In the case of `O=C1C(N=Nc2ccccc2)Sc2nc3ccccc3n21` (stereo not given), the survivor count (dose: 240.0 mg/kg/injection, schedule: Q01DX005 (ip), vehicle: Klucel (hydroxypropylcellulose) (HPC)) was 4 of 6.

With `O=c1cc[nH]c2ccc3ccccc3c12`, the survivor count under setting [3] is on record as 0 of 5.

Consider `NC(=O)SCC(N)C(=O)O` (stereo not given), for which the T/C reads like this: (dose: 100.0 mg/kg/injection, schedule: Q01DX009 (ip), vehicle: saline) 125 and 129 % of control; (dose: 200.0 mg/kg/injection, schedule: Q01DX009 (ip), vehicle: saline with Tween-80, evaluated on day 20) 128 % of control; (dose: 200.0 mg/kg/injection, schedule: Q01DX009 (ip), vehicle: saline with Tween-80, evaluated on day 30) 132 % of control; (dose: 200.0 mg/kg/injection, schedule: Q01DX009 (ip), vehicle: saline) 127 and 148 % of control; (dose: 200.0 mg/kg/injection, schedule: Q01DX009 (ip), vehicle: suspension in saline) 125 % of control; (dose: 400.0 mg/kg/injection, schedule: Q01DX009 (ip), vehicle: suspension in saline) 143 % of control. Also, the survivor count is, setting by setting: (dose: 400.0 mg/kg/injection, schedule: Q01DX009 (ip), vehicle: saline with Tween-80) 6 of 6; (dose: 600.0 mg/kg/injection, schedule: Q01DX009 (ip), vehicle: saline with Tween-80) 5 of 6; (dose: 600.0 mg/kg/injection, schedule: Q01DX009 (ip), vehicle: saline) 3 of 6; (dose: 600.0 mg/kg/injection, schedule: Q01DX009 (ip), vehicle: suspension in saline) 5 of 6.

Consider `O=S(=O)(c1ccc(Cl)cc1)N(Cl)Cl`, for which the survivor count runs as follows: under setting [9], 0 of 6; under setting [10], 0 of 6.

Consider `C[n+]1c2ccccc2c2c3c(cccc31)C(=O)c1cc(Cl)ccc1-2` (tested in a mixture with another compound), for which the survivor count was 2 of 6 (dose: 25.0 mg/kg/injection, schedule: Q01DX009 (ip), vehicle: water); 0 of 6 under setting [5]; 0 of 6 under setting [6].

Consider `C[N+]1(C[Si](C)(C)c2ccccc2)CCCCC1`, for which the survivor count by setting is: under setting [11], 3 of 6; under setting [4], 0 of 6.

For the compound `CCC1OCN2CCCCC12` (stereo not given), the T/C under setting [11] was 125 % of control [5 of 6 alive]. For the same compound, the survivor count under setting [4] is 1 of 6.

As for `COc1cc2c(cc1OC)C13CCN4CC5=CCOC6CC(=O)N2C1C6C5C3C4` (stereo not given) (tested in a mixture with another compound), the survivor count runs as follows: under setting [11], 1 of 5; under setting [4], 0 of 5.
